The list does not hold the whole screen: it gathers tests that were run many times, whatever their T/C, doses with no T/C, and many T/C values between a quarter and a half above the control. Other doses and runs of a compound stand elsewhere. T/C is the treated group as % of the vehicle group. Some entries give survivors of the animals treated and no T/C: the source files T/C as zero there, which appears to mark a toxic dose or a test without result, not a measured value. Some doses without a T/C left all or most animals alive at the check, yet need not have been tolerated: the source hardly ever lists a survival T/C far under the control, and the zero likely stands for such cases as well. Survivors were counted at the toxicity check, usually on the fifth day, unless a day is given; later deaths do not show. Schedule codes are those of the source, taken here to give the interval after Q, in days (D) or hours (H), and the number of doses after X. Some entries hold several experiments; the values are given in rising order. Where survival is the endpoint, the PubChem record calls one and a half times the control and up active, and a quarter to a half above the control has no call in these data; cut-offs in other NCI protocols can differ. Some T/C values carry the count of animals alive at the toxicity check (mostly the fifth day); where none is given, no animal had died by that day.
Tested on: BDF1 mice, B16 melanoma ip, median survival T/C
Assay: NCI In Vivo Anticancer Drug Screen. Data for tumor model B16 Melanoma (intraperitoneal) in B6D2F1 (BDF1) mice
Settings: T/C endpoint: median survival time, higher T/C = longer survival
How it was run: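 Tumor-bearing mice received test compound or vehicle. Survival or tumor size was then measured in both groups. The treated-group figure was divided by the control-group figure.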

[1] = dose: 400.0 mg/kg/injection, schedule: Q04DX003 (ip), vehicle: Klucel (hydroxypropylcellulose) (HPC)

In the case of `COC[C@H]1OC(=O)c2coc3c2[C@@]1(C)C1=C(C3=O)[C@@H]2CCC(=O)[C@@]2(C)C[C@H]1OC(C)=O`, the survivor count (dose: 1.25 mg/kg/injection, schedule: Q01DX009 (ip), vehicle: saline with Tween-80) is reported as 9 of 10, the survivor count (dose: 2.5 mg/kg/injection, schedule: Q01DX009 (ip), vehicle: saline with Tween-80) is reported as 10 of 10 and the survivor count (dose: 5.0 mg/kg/injection, schedule: Q01DX009 (ip), vehicle: saline with Tween-80) is reported as 8 of 10. The survivor count (dose: 10.0 mg/kg/injection, schedule: Q01DX009 (ip), vehicle: saline with Tween-80) was 1 of 10.

In the case of `c1ccc([P+](C[P+](c2ccccc2)(c2ccccc2)c2ccccc2)(c2ccccc2)c2ccccc2)cc1`, the survivor count (dose: 3.0 mg/kg/injection, schedule: Q01DX009 (ip), vehicle: saline) is reported as 9 of 10, the survivor count (dose: 6.0 mg/kg/injection, schedule: Q01DX009 (ip), vehicle: saline) is reported as 10 of 10 and the survivor count (dose: 12.0 mg/kg/injection, schedule: Q01DX009 (ip), vehicle: saline) is reported as 2 of 10.

`O=C(O)c1ccccc1C(=O)c1ccc(CBr)cc1` was tested, and the survivor count (dose: 0.38 mg/kg/injection, schedule: Q01DX009 (ip), vehicle: saline with Tween-80) was 10 of 10, the survivor count (dose: 0.75 mg/kg/injection, schedule: Q01DX009 (ip), vehicle: saline with Tween-80) was 10 of 10 and the survivor count (dose: 3.13 mg/kg/injection, schedule: Q04DX003 (ip), vehicle: saline with Tween-80) was 10 of 10. For the same compound, the survivor count (dose: 6.25 mg/kg/injection, schedule: Q04DX003 (ip), vehicle: saline with Tween-80) was 10 of 10.

`CCCCCCOP(=O)(CCCCCC)OCCCCCC` was tested, and the survivor count (dose: 25.0 mg/kg/injection, schedule: Q01DX009 (ip), vehicle: Klucel (hydroxypropylcellulose) (HPC)) was 6 of 6.

With `CCNCCNc1ccc(NCCNCC)c2c1C(=O)c1ccccc1C2=O` the T/C (dose: 4.0 mg/kg/injection, schedule: Q01DX009 (ip), vehicle: acid diluted with saline) was 127 % of control, the survivor count (dose: 32.0 mg/kg/injection, schedule: Q01DX009 (ip), vehicle: acid diluted with saline) was 10 of 10 and the survivor count (dose: 64.0 mg/kg/injection, schedule: Q01DX009 (ip), vehicle: acid diluted with saline) was 0 of 10.

`Cc1ccc(S(=O)(=O)OC2CCN(C)CC2)cc1` was tested, and the survivor count (dose: 12.0 mg/kg/injection, schedule: Q04DX003 (ip), vehicle: Klucel (hydroxypropylcellulose) (HPC)) was 10 of 10, the survivor count (dose: 25.0 mg/kg/injection, schedule: Q04DX003 (ip), vehicle: Klucel (hydroxypropylcellulose) (HPC)) was 10 of 10 and the survivor count (dose: 50.0 mg/kg/injection, schedule: Q04DX003 (ip), vehicle: Klucel (hydroxypropylcellulose) (HPC)) was 9 of 10. The survivor count (dose: 100.0 mg/kg/injection, schedule: Q04DX003 (ip), vehicle: Klucel (hydroxypropylcellulose) (HPC)) was 2 of 10 and 9 of 10, the survivor count (dose: 200.0 mg/kg/injection, schedule: Q04DX003 (ip), vehicle: Klucel (hydroxypropylcellulose) (HPC)) was 0 of 10 and the survivor count [1] was 0 of 10.

For `COc1cc(C(=O)CO)cc(OC)c1OC(C)=O`, the survivor count (dose: 400.0 mg/kg/injection, schedule: Q04DX003 (ip), vehicle: saline with Tween-80) was 10 of 10.

In the case of `O=C(Nc1ccc([N+](=O)[O-])cc1)Nc1nccs1`, the T/C (dose: 12.5 mg/kg/injection, schedule: Q01DX009 (ip), vehicle: distilled water + Tween-80) is reported as 128 % of control [9 of 10 alive], the T/C (dose: 25.0 mg/kg/injection, schedule: Q01DX009 (ip), vehicle: distilled water + Tween-80) is reported as 144 % of control and the survivor count (dose: 100.0 mg/kg/injection, schedule: Q01DX009 (ip), vehicle: distilled water + Tween-80) is reported as 10 of 10. The survivor count (dose: 200.0 mg/kg/injection, schedule: Q01DX009 (ip), vehicle: distilled water + Tween-80) was 4 of 10.

With `COc1ccc(Oc2cc(CC3c4cc(OC)c(OC)cc4CCN3C)c([N+](=O)[O-])cc2OC)cc1OC` (stereo not given) the survivor count (dose: 100.0 mg/kg/injection, schedule: Q01DX009 (ip), vehicle: saline) was 7 of 10, the survivor count (dose: 200.0 mg/kg/injection, schedule: Q01DX009 (ip), vehicle: saline) was 0 of 10 and the survivor count (dose: 400.0 mg/kg/injection, schedule: Q01DX009 (ip), vehicle: saline) was 0 of 10.

In the case of `C=C1CCN(c2ccccc2Cl)C1=O`, the T/C (dose: 64.0 mg/kg/injection, schedule: Q01DX009 (ip), vehicle: saline + alcohol) is reported as 128 % of control.

With `S=c1[nH]nc(NC2CCCCC2)s1` the survivor count (dose: 50.0 mg/kg/injection, schedule: Q01DX009 (ip), vehicle: saline with Tween-80) was 6 of 6, the survivor count (dose: 100.0 mg/kg/injection, schedule: Q01DX009 (ip), vehicle: Klucel (hydroxypropylcellulose) (HPC)) was 9 of 10 and the survivor count (dose: 100.0 mg/kg/injection, schedule: Q01DX009 (ip), vehicle: saline with Tween-80) was 6 of 6. The survivor count (dose: 200.0 mg/kg/injection, schedule: Q01DX009 (ip), vehicle: saline with Tween-80) was 6 of 6 and the survivor count [1] was 6 of 10.

— PubChem BioAssay AID192 (DTP/NCI, 2004)
